# Screen size: about 31,000 sequences; about 1,400 (4.5%) were called active.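 Rule for the calls: active = median seed-adjusted z-score above 1 or below -1; inactive = the rest.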 This is one part of the list.
# Assay: Novel Modifiers of Survival Motor Neuron (SMN) Protein: Gene Identification via Genome-wide siRNA Screen;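 note: luminescence tracks full-length SMN protein made from the SMN2 reporter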
# Conditions: HEK293T SMN2-luciferase reporter, siRNA knockdown, 72 h; actives lie on both sides
# Procedure, shortened: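 siRNA screen, 10418 genes ×3 siRNAs; 1 pmol/well, lipid reverse transfection into HEK293T SMN2-luc reporter line. 72 h, 37 °C, 5% CO2; ONE-Glo readout. Data: neg-ctrl normalized, log10, MAD; hit = MAD >1.0 or < -1.0.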
row,Sequence,median seed-adjusted z-score
1,GAAAAGUACUUCCUACUGUTT against LPAR2,inactive: 0.171
2,CAGUUUGUUGAAUAUGAUATT against RCN2,inactive: -0.112
3,GGAAGACGAUAACAGGAUCTT against SF1,inactive: 0.795
4,GCAAUGGACGCAUCAAACATT against PTPRS,inactive: -0.433
5,AGAUGACGGUGGAUCACUUTT against HEYL,inactive: 0.48
6,CUACGGAUGUGAAUCAAGATT against TAC3,inactive: -0.00265
7,GGCCUUACUUAUUUGUGGATT against MAP2K5,inactive: 0.986
8,AGAAUGUCUUGAUUGUGGATT against HPRT1,inactive: -0.0463
9,GAAUGGUUAUAAAAGUGAUTT against HNRNPA1,inactive: 0.563
10,CAAGACCGAGAGAACAAUATT against ENOX1,inactive: 0.0694
11,GCAAGCUCAUGAAACAUGATT against MAPK12,inactive: 0.0649
12,GCACAAUUGAAAACUUCAATT against CYSLTR2,inactive: 0.0461
13,GGACUGCAGUGCAACGCAUTT against CRHR1,inactive: -0.67
14,GCCUUACAACUCUAAUGAATT against ZNF519,inactive: 0.0162
15,AGCAUGUAAUCAGCCCAAATT against GMEB2,inactive: -0.669
16,GUAUGAGAAUGACACGUCATT against ZNF69,inactive: 0
17,GAGUGACAGUUCAGCUGGATT against TBX10,inactive: 0.175
18,CAACAUCUGCUGUAAGAAATT against INHBA,inactive: 0.361
19,GAACUUGACCCAUACCUAUTT against SLC4A9,inactive: 0
20,CAAUAGUAUCAUAACUAGATT against BCHE,inactive: 0.117
21,CGCUGAGCUCAACACCAUATT against SLC12A3,inactive: -0.891
22,GAGGAGUGCUGUUUCCGCATT against IGF2,inactive: -0.0306

# 2 successive records already listed:
row,Sequence,median seed-adjusted z-score
2,CAGUUUGUUGAAUAUGAUATT against RCN2,inactive: -0.112
3,GGAAGACGAUAACAGGAUCTT against SF1,inactive: 0.795

# The list continues.

row,Sequence,median seed-adjusted z-score
1,CACCCAGCCUGGUACUGAATT against COMT,inactive: -0.0808
2,CGCUCAGCCUUUUACUGGATT against LGI1,inactive: -0.19
3,CACGAGUGAUAAACAUAUUTT against SLC3A1,inactive: -0.33
4,CCUAAAUGAUCGCAAAGUATT against PABPC1,inactive: -0.126
5,CCUUAUCCGCUACCUCCAATT against TAF5L,inactive: 0.409
6,CUAAGGGACUCAGCACUAATT against PCSK1,inactive: 0.154
7,GGUAUCACACUUUAACCAATT against BAG5,inactive: -0.0153
8,GAGUAGCACUUGUUAACGATT against ZC3HAV1,inactive: 0.522
9,GGAGGUUUUAAUUUCCGAATT against LAMA4,inactive: 0.691
10,GGGAAUUUGUCUACCAGGATT against ZSCAN18,inactive: 0.125
11,CACUAAUGGAUAUUGCCUATT against BMI1,inactive: 0
12,GAGAGAACAUAGACGAGGATT against RYR1,inactive: -0.474
13,CUAUGUUUGUGGAGACUCATT against STX2,inactive: 0.442
14,UGUCUGUACUGAUCCUCAATT against HMGN1,inactive: -0.183
15,ACACCCAGCUGACAUCCGATT against CACNG5,inactive: -0.41
16,GAGUUGCACAAGAUAGUUUTT against TCERG1,inactive: 0.415
17,GCGAUAUCCUGGAUGAGAATT against ELF4,inactive: -0.0311
18,CAAAGACUAUUUCCUAGAATT against GNA13,inactive: 0
19,GCAUUGCUCAAGAUUCUCATT against SPOCK3,inactive: 0.329
20,GAAACGAUGUGAGUAUGCATT against MED13,inactive: -0.469
21,GAAUCCUCAAUGUGGAUGATT against HPCA,inactive: 0.12
22,GGUUCAUCUGGGAAUAUGATT against RERG,inactive: 0.59

row,Sequence,median seed-adjusted z-score
1,GGUAGAUCUCUACAACCCATT against AKAP4,inactive: 0.116
2,GGAGCACUCGACUACUAUATT against RBM4B,inactive: -0.251
3,CCCGUAAUGUCUUAGUGAATT against ERBB4,inactive: 0.166
4,GAGCGUGGACGGACGAAAATT against RBP5,inactive: -0.748
5,GGCGAGCACUAUGAAGUCATT against DPP9,inactive: -0.224
6,GAAGACUCAUCAUUACUUATT against TAF11,inactive: -0.848
7,CCGUCUGGGCUUUACUAUATT against CNTNAP3,inactive: 0.15
8,GCAUAUGCUUUGGAUUAUUTT against PANK2,inactive: 0.121
9,GGCUCUUCGACAGCUCGUATT against PPT2,inactive: 0.0334
10,CGAAUGCAAUGUUUGUGGATT against ZNF146,inactive: 0.23
11,CAAUGGGUCUGUCUACUUUTT against CARS,inactive: 0
12,GGACAAGAGGAAACCCACATT against UQCR,inactive: 0.193
13,GCUGGGAGGUGUUUGCAAATT against NDUFA11,inactive: -0.722
14,AGGUAGAAUGGACAAGUGATT against PPP1R11,inactive: -0.498
15,CAUCAAUGAGGUAUACUAUTT against DYRK1B,inactive: 0.29
16,CGUACGGAGAGGUGAGAAATT against GALNT9,inactive: 0.787
17,GCCUUUCGAUUCAUCUACATT against GPR34,inactive: 0.529
18,ACUGUGCCGUUUCCACCAATT against CCR9,inactive: 0.16
19,CCUGAACACACCUUACAUATT against RNASE8,inactive: 0.00771
20,GGGAAGGCGUCAUGAAACATT against DHDH,inactive: 0.522
21,CCACGGUUGCUCCAAUGUATT against SVIL,inactive: 0.0852
22,CCAGUGAACUUCUUGGAGATT against SOX6,inactive: 0.0135

row,Sequence,median seed-adjusted z-score
1,CAGGUGACAUGGUAAGGAUTT against DZIP3,inactive: 0.435
2,AUUCAGCCCUGUUAGUUCATT against ZNF701,inactive: -0.0161
3,GUACGGAACCUGACCGAUUTT against ATE1,inactive: 0.569
4,GAGAGACAUUUCAAUAAGATT against USP5,inactive: 0.596
5,GGAGUAUAAGUUCUACUAUTT against TYK2,inactive: -0.549
6,UGAUGUGAGUUCUUCGAAUTT against FCN1,inactive: 0.346
7,GGGAAUUUGUGAGACAGUATT against G3BP1,inactive: -0.593
8,GCAUGUACAUCCACCCAGATT against TBX2,inactive: 0.42
9,UGUCAGUGCUCGGCUGUAATT against AIRE,inactive: 0.308
10,CCUGUUUCCUAUUAACGAATT against GRM3,inactive: -0.401
11,CAUUCACUUUGACACCAUATT against HSD17B7,inactive: 0.0836
12,GGAUUAUAUGCUGUAUGUATT against CADM1,inactive: 0.419
13,CCUAUGAUCCAAUGCUUAATT against DDR2,inactive: 0.252
14,GGACUUCGGUGUGAAUGGUTT against AACS,inactive: 0.232
15,GUGGAAAAGCGGAAAUGCATT against IAPP,inactive: -0.157
16,CCAUCUCGAAUGGAUCGUATT against SMARCC1,inactive: -0.0304
17,GCAUCGCCGAGAAGGUUAATT against TXNL4A,inactive: -0.42
18,CAGCAAAACUGAUAGAGAATT against EEF2,inactive: -0.159
19,GAGGAACAGUUAAUUGAAUTT against SNAPC4,inactive: -0.62
20,CGCAGUGAGUUUGAACAGATT against SETD1A,inactive: 0.0595
21,GCAUCAUUGAAGGACUAGATT against HEY1,inactive: -0.023
22,CGAACCUUCUUCUCCGAAATT against ZNF521,inactive: -0.331

# 4 records drawn at random from the list so far, as already listed:
row,Sequence,median seed-adjusted z-score
11,CACUAAUGGAUAUUGCCUATT against BMI1,inactive: 0
10,CAAGACCGAGAGAACAAUATT against ENOX1,inactive: 0.0694
3,GGAAGACGAUAACAGGAUCTT against SF1,inactive: 0.795
6,UGAUGUGAGUUCUUCGAAUTT against FCN1,inactive: 0.346

# Next entries.

row,Sequence,median seed-adjusted z-score
1,ACACCAAUAUUAACACGCUTT against WISP2,inactive: -0.0731
2,GCAACGUAAAAAUUGUGAATT against ATP5E,inactive: -0.724
3,AGGACUCCGGCAUCACAUATT against DUSP3,inactive: -0.00768
4,GAUUUACUAUUUGAACAGATT against ADAT1,inactive: 0.404
5,CCAUGACUGAUAUUCGCAATT against CAPN6,inactive: 0.0288
6,GGUUACCUUUUUCACAAGATT against UGT2B10,inactive: 0.989
7,CGAGAUAACGUGGACCUAUTT against ANAPC7,inactive: -0.263
8,GCUAUGAGCUGAGCCCUCATT against RARG,inactive: -0.0492
9,CCUUGUCUGUUUUGAGCAATT against CHD1L,inactive: 0.63
10,GACCCGGUAUAUGAACUCATT against UCP3,active: 1.23
11,GUCUAGAUGAUGCCUUAAATT against DHFR,inactive: -0.952
12,CGGGAAAGGGAGAAUCUUATT against GOSR1,inactive: -0.252
13,CCUUGGAACUUCAUACUAUTT against TRIM38,inactive: -0.375
14,CAACUAAUUUCUAAUCGUUTT against ADAD1,inactive: -0.0795
15,GCAGUAUGCAAGAAGGAUATT against CCNB3,inactive: 0
16,AGGUUGAACUGCAAGCCAATT against KRT6C,inactive: -0.275
17,GCCUGGAGAUAUUAUUCAUTT against ST8SIA2,inactive: 0.516
18,CGUCUUCUACCGCAACCAUTT against PHYHIP,inactive: 0.18
19,GUUGAUUUAUCAUUAGUGATT against KYNU,inactive: 0.00735
20,UCACCGUUGCUGAACAAAATT against DUS2L,inactive: -0.705
